From publication PMC9068703
For at least one entry, the source does not settle the construct or the ends of the probe. For part of these data: Negatives hold for the conditions tested. For part of these data: The comparison behind a weaker result is the experiment's own reference, which may not be listed here. For part of these data: Protein sequences can lack the tags named with them.

Experiments:
[1] = target: T1, PtrR (YneJ) (Escherichia coli K-12 (ASKA collection)) (UniProt P77309); test: fluorescence polarization; conditions: FP: Tris pH 7.5, 0.1 M NaCl, 10 mM MgSO4, 5 mg/ml sperm DNA, 10 mM urea, labeled DNA (10 nM and 1 uM both stated), 0-1.5 uM PtrR, 0-0.6 mM GABA, 1 h at 30 C, recombinant protein
T1 sequence (looked up, limits assumed): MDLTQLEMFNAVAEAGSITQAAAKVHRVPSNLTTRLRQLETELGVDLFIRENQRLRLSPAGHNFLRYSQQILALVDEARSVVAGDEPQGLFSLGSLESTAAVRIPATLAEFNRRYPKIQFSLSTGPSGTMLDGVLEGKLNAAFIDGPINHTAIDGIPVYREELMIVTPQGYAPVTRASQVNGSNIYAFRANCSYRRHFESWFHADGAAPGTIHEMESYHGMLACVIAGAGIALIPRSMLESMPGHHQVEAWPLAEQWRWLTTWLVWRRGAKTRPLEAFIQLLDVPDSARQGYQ

[2] = tested on: PhrR (Halomonas); test: fluorescence polarization; conditions: negative control; FP: Tris pH 7.5, 0.1 M NaCl, 10 mM MgSO4, 5 mg/ml sperm DNA, 10 mM urea, labeled DNA (10 nM and 1 uM both stated), 0-1.5 uM PtrR, 0-0.6 mM GABA, 1 h at 30 C; recombinant protein

## GGGTTCTCGATTCGTGAAGGG (double strand) [sad (yneI) operator fragment]
[1]; GABA (0-0.6 mM) leads to dissociation
  binding result: binds more weakly
[1]; no GABA, specific binding detected at 0.6 uM PtrR
  binding result: binds
[2]
  binding result: no binding
